# PubChem BioAssay AID504784, Drosophila RNAi Screening Center | 2011
# Screen: 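Genome-wide knock-down for genes giving too much or too little stored lipid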 (primary screen)
# System: Drosophila Kc167 embryonic cells
# Knock-down reagent: long dsRNA against Drosophila genes, about 250 ng dsRNA per well
# Duration: 4 days
# Treatment: cells fed 400 µM oleic acid bound to BSA
# Measurement: 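Cells imaged and segmented; ratio of lipid droplet area to nuclear area, log-transformed, then normalised as a B-score over the screen; higher means more stored lipid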
# Scale: droplet/nuclear area B-score: higher = more stored lipid (overstorage)
# The deposit covers about 17,000 reagents; shown is an unselected part of those that have a named target and a result. 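Each column is one replicate's B-score; the combined score over replicates was not deposited, so single values may mislead.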 Reagents against one gene are numbered here.
"droplet/nuclear area B-score, replicate 1","droplet/nuclear area B-score, replicate 2","droplet/nuclear area B-score, replicate 3",target,reagent no.
-0.572,-0.202,,DCAF12 (DDB1 and CUL4 associated factor 12),1
-0.497,0.0442,,Tspo (Translocator protein),1
0.761,0.0978,-0.662,Nprl3 (Nitrogen permease regulator-like 3),1
-2.19,-1.22,,CG9150,1
-0.877,1.17,,CG2955,1
3.62,-0.183,,CG11655,1
-0.0944,2.47,,Msp300 (Muscle-specific protein 300 kDa),1
0.98,0.67,,Msp300 (Muscle-specific protein 300 kDa),2
0.0944,-0.00535,,Msp300 (Muscle-specific protein 300 kDa),3
0.0573,-0.014,,Msp300 (Muscle-specific protein 300 kDa),4
-0.309,0.204,,Msp300 (Muscle-specific protein 300 kDa),5
1,2.71,,Msp300 (Muscle-specific protein 300 kDa),6
-1.51,-1.48,-0.662,ATP7,1
0.0599,0.732,-0.903,tub (tube),1
-2.48,1.23,,tub (tube),2
2.73,0.00508,,GC1,1
0.262,0.725,,CG1418,1
-0.111,0.652,,CG30431,1
-1.02,-1.42,,CG30431,2
0.173,-0.00478,,ninaA (neither inactivation nor afterpotential A),1
-1.54,,,lncRNA:CR42862 (long non-coding RNA:CR42862),1
0.00576,2.46,,Atg2 (Autophagy-related 2),1
-0.535,1.53,,CG32563,1
1.4,3.37,,Gyf (Gigyf),1
4.22,10.6,,AIF (Apoptosis inducing factor),1
0.937,0.921,,CG43328,1
0.018,0.542,-0.293,CG30403,1
-1.52,-1.07,,side-VI (sidestep VI),1
2.25,2.57,,side-VI (sidestep VI),2
0.632,3.68,,side-VI (sidestep VI),3
3.25,3.7,,eIF3e (eukaryotic translation initiation factor 3 subunit e),1
0.558,-0.48,,CG9962,1
-0.478,-0.887,,GNBP-like3 (GNBP-like 3),1
-0.839,-6.52,,CG6923,1
0.0948,0.146,,Pdf (Pigment-dispersing factor),1
0.615,-0.307,,Rab6,1
0.00134,0.461,,CG5302 (retired record),1
-0.809,0.239,,CG5302 (retired record),2
-0.455,-0.366,,CG5302 (retired record),3
0.718,0.743,,CG8281,1
-1.37,-0.682,,CG9812,1
0.597,-0.617,,w-cup (world cup),1
-0.282,0.98,,dpn (deadpan),1
-0.499,0.915,,CG2983,1
-0.218,0.152,-0.913,CG32647,1
-0.867,0.948,0.186,CG32647,2
-0.166,0.723,,CG13723,1
-0.276,0.622,,CG9864,1
-0.639,0.604,,Kank,1
0.17,-1.74,,Kank,2
6.4,5.32,,eIF4G1 (eukaryotic translation initiation factor 4G1),1
-0.631,-0.269,,witty (without maturity),1
-0.903,-0.384,,witty (without maturity),2
1.06,-0.185,,CG31668,1
1.33,1.95,,RpL8 (Ribosomal protein L8),1
2.34,2.02,,RpL8 (Ribosomal protein L8),2
-0.375,-0.592,,"beta4GalNAcTB (beta1,4-N-acetylgalactosaminyltransferase B)",1
0.365,-0.943,,fat-spondin,1
-1.44,1.9,,CG33225,1
-1.89,2.06,,Eogt (EGF-domain O-GlcNAc transferase),1
-0.307,0.386,,CG10911,1
-0.113,-0.08,,Acp65Aa (Adult cuticle protein 65Aa),1
-0.396,-2.26,,Rabex-5 (Rabaptin-5-associated exchange factor for Rab5),1
-0.00118,3.52,,CG15255,1
-3.84,0.239,,kkv (krotzkopf verkehrt),1
-0.285,-1.8,,CG17321,1
-0.743,0.00637,,Klp67A (Kinesin-like protein at 67A),1
-0.157,-0.889,,Sln (Silnoon),1
-1.71,-0.65,,CG8343,1
0.197,,,CG13101,1
-0.338,0.239,,CycB (Cyclin B),1
-0.615,-0.599,,scw (screw),1
-0.0127,0.702,,scw (screw),2
4.1,3.27,,mRpL54 (mitochondrial ribosomal protein L54),1
-3.09,-3.39,,Cow,1
0.57,-0.0994,,Cow,2
-1.99,0.915,,CG42450,1
-1.15,1.98,,CG42450,2
0.266,0.679,,CG42324,1
1.07,1.16,,CG42324,2
-0.934,0.198,,CG11562,1
-1.13,-0.00602,,CG42319,1
-1.46,-0.00673,,CG42319,2
-0.0137,-0.0358,,CG42319,3

Laid out differently: results already given
Rabex-5 (Rabaptin-5-associated exchange factor for Rab5)
- droplet/nuclear area B-score, replicate 1: -0.396
- droplet/nuclear area B-score, replicate 2: -2.26

CG15255
- droplet/nuclear area B-score, replicate 1: -0.00118
- droplet/nuclear area B-score, replicate 2: 3.52

kkv (krotzkopf verkehrt)
- droplet/nuclear area B-score, replicate 1: -3.84
- droplet/nuclear area B-score, replicate 2: 0.239

CG17321
- droplet/nuclear area B-score, replicate 1: -0.285
- droplet/nuclear area B-score, replicate 2: -1.8

Klp67A (Kinesin-like protein at 67A)
- droplet/nuclear area B-score, replicate 1: -0.743
- droplet/nuclear area B-score, replicate 2: 0.00637

Sln (Silnoon)
- droplet/nuclear area B-score, replicate 1: -0.157
- droplet/nuclear area B-score, replicate 2: -0.889

CG8343
- droplet/nuclear area B-score, replicate 1: -1.71
- droplet/nuclear area B-score, replicate 2: -0.65

CG13101
- droplet/nuclear area B-score, replicate 1: 0.197
